Results from paper PMC4718629, “Molecular Determinants of GS-9620-Dependent TLR7 Activation” (PLoS ONE, 2016).
Positions count from the first letter of the chain named. Names and notes keep the numbering of the source. These are yes or no findings as the source states them, for the method shown. Binding seen in cells or lysates may run through a third protein. Some entries that bind do so weakly or less than the wild type. Tags and fused reporters may be left off the sequences shown.

Experiments:
Assay in all cases: co-IP; lysates of cells co-transfected with V5- and HA-tagged receptors; precipitated with anti-V5 agarose for 3 hours at 4°C; blotted with anti-HA mAb; cells untreated or treated with GS-9620 (0.1, 1 and 5 uM)
[1] = target: human TLR7, wild type, with C-terminal V5 or HA tag (human) (UniProt Q9NYK1)
[2] = target: human TLR7 F408A with C-terminal V5 or HA tag (human) (UniProt Q9NYK1)
[3] = target: human TLR7 D555A with C-terminal V5 or HA tag (human) (UniProt Q9NYK1)

B1: full-length recombinant human TLR7 (residues 27-1049) with N-terminal 6HIS tag (receptor, UniProt Q9NYK1 27-1049, looked up)
chain: ARWFPKTLPCDVTLDVPKNHVIVDCTDKHLTEIPGGIPTNTTNLTLTINHIPDISPASFHRLDHLVEIDFRCNCVPIPLGSKNNMCIKRLQIKPRSFSGLTYLKSLYLDGNQLLEIPQGLPPSLQLLSLEANNIFSIRKENLTELANIEILYLGQNCYYRNPCYVSYSIEKDAFLNLTKLKVLSLKDNNVTAVPTVLPSTLTELYLYNNMIAKIQEDDFNNLNQLQILDLSGNCPRCYNAPFPCAPCKNNSPLQIPVNAFDALTELKVLRLHSNSLQHVPPRWFKNINKLQELDLSQNFLAKEIGDAKFLHFLPSLIQLDLSFNFELQVYRASMNLSQAFSSLKSLKILRIRGYVFKELKSFNLSPLHNLQNLEVLDLGTNFIKIANLSMFKQFKRLKVIDLSVNKISPSGDSSEVGFCSNARTSVESYEPQVLEQLHYFRYDKYARSCRFKNKEASFMSVNESCYKYGQTLDLSKNSIFFVKSSDFQHLSFLKCLNLSGNLISQTLNGSEFQPLAELRYLDFSNNRLDLLHSTAFEELHKLEVLDISSNSHYFQSEGITHMLNFTKNLKVLQKLMMNDNDISSSTSRTMESESLRTLEFRGNHLDVLWREGDNRYLQLFKNLLKLEELDISKNSLSFLPSGVFDGMPPNLKNLSLAKNGLKSFSWKKLQCLKNLETLDLSHNQLTTVPERLSNCSRSLKNLILKNNQIRSLTKYFLQDAFQLRYLDLSSNKIQMIQKTSFPENVLNNLKMLLLHHNRFLCTCDAVWFVWWVNHTEVTIPYLATDVTCVGPGAHKGQSVISLDLYTCELDLTNLILFSLSISVSLFLMVMMTASHLYFWDVWYIYHFCKAKIKGYQRLISPDCCYDAFIVYDTKDPAVTEWVLAELVAKLEDPREKHFNLCLEERDWLPGQPVLENLSQSIQLSKKTVFVMTDKYAKTENFKIAFYLSHQRLMDEKVDVIILIFLEKPFQKSKFLQLRKRLCGSSVLEWPTNPQAHPYFWQCLKNALATDNHVAYSQVFKETV
notes: human Toll-like receptor 7 (TLR7), residues 27-1049; also called recTLR7; recombinant TLR7
For B1, the binding [1] was “binds”.

B2: human TLR7 F408A with C-terminal V5 or HA tag (receptor, UniProt Q9NYK1 27-1049)
chain: B1 chain with F382A
For B2, the binding [2] was “binds”.

B3: human TLR7 D555A with C-terminal V5 or HA tag (receptor, UniProt Q9NYK1 27-1049)
chain: B1 chain with D529A
With B3 the binding [3] was “binds”.
